Earlier results on one compound are cited in patent publication US20220387342A1, “TRANSDERMAL PATCH” (University of Sunderland, priority 2019, published 2022).

One may read the aqueous solubility as how much of the substance goes into solution per volume.

For the series the following is noted: hydrochloride; cited from earlier work.

Structures can show the parent of a compound that is named as a salt.

`O=C1CC[C@@]2(O)[C@H]3Cc4ccc(O)c5c4[C@@]2(CCN3CC2CC2)[C@H]1O5` [naltrexone hydrochloride]: the aqueous solubility is listed as 90 mg/mL.
